In the supplement of paper PMC7661543:
The effect of the compound repeats well; differences between the knockouts mostly do not.

System: SKBR3
Assay: relative cell number vs DMSO control (72 h) (% of DMSO); higher = less growth inhibition (more cells)
Description: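 QMAP-Seq: a pool of 5 breast cancer cell lines (ZR-75-1, SKBR3, HCC-38, MDA-MB-231, BT-20), each carrying 12 doxycycline-inducible Cas9 sgRNA perturbations (11 knockouts plus non-targeting sgNT), was treated with compounds for 72 h at four 10-fold doses (10 nM-10 uM or 1 nM-1 uM range). Barcodes were amplified and sequenced, and cell number was interpolated from 293T spike-in standard curves. The result is expressed as % of the median of DMSO wells. Two biological replicates.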

CC(C)C[C@H](NC(=O)[C@H](Cc1ccccc1)NC(=O)c1cnccn1)B(O)O [Bortezomib]
Conditions | relative cell number
sgRNA knockout: sgATF3, 1 nM | 78.9
sgRNA knockout: sgATF3, 10 nM | 53.1
sgRNA knockout: sgATF3, 100 nM | 12.7
sgRNA knockout: sgATF3, 1000 nM | 9.87
sgRNA knockout: sgATF4, 1 nM | 90.8
sgRNA knockout: sgATF4, 10 nM | 42.4
sgRNA knockout: sgATF4, 100 nM | 9.3
sgRNA knockout: sgATF4, 1000 nM | 8.36
sgRNA knockout: sgATF6, 1 nM | 92.5
sgRNA knockout: sgATF6, 10 nM | 40.3
sgRNA knockout: sgATF6, 100 nM | 12.1
sgRNA knockout: sgATF6, 1000 nM | 9.18
sgRNA knockout: sgATG7, 1 nM | 98.5
sgRNA knockout: sgATG7, 10 nM | 47.9
sgRNA knockout: sgATG7, 100 nM | 6.75
sgRNA knockout: sgATG7, 1000 nM | 13.3
sgRNA knockout: sgERN1, 1 nM | 100
sgRNA knockout: sgERN1, 10 nM | 38.5
sgRNA knockout: sgERN1, 100 nM | 10.3
sgRNA knockout: sgERN1, 1000 nM | 9.11
sgRNA knockout: sgHSF1, 1 nM | 91.8
sgRNA knockout: sgHSF1, 10 nM | 46.1
sgRNA knockout: sgHSF1, 100 nM | 10
sgRNA knockout: sgHSF1, 1000 nM | 9.32
sgRNA knockout: sgHSF2, 1 nM | 92.7
sgRNA knockout: sgHSF2, 10 nM | 53.9
sgRNA knockout: sgHSF2, 100 nM | 10.7
sgRNA knockout: sgHSF2, 1000 nM | 8.76
sgRNA knockout: sgKEAP1, 1 nM | 101
sgRNA knockout: sgKEAP1, 10 nM | 50.4
sgRNA knockout: sgKEAP1, 100 nM | 10.1
sgRNA knockout: sgKEAP1, 1000 nM | 10.2
sgRNA knockout: sgNFE2L2, 1 nM | 75.7
sgRNA knockout: sgNFE2L2, 10 nM | 50.4
sgRNA knockout: sgNFE2L2, 100 nM | 13.7
sgRNA knockout: sgNFE2L2, 1000 nM | 11.3
sgRNA knockout: sgSLC35F2, 1 nM | 90.5
sgRNA knockout: sgSLC35F2, 10 nM | 44
sgRNA knockout: sgSLC35F2, 100 nM | 8.71
sgRNA knockout: sgSLC35F2, 1000 nM | 7.84
sgRNA knockout: sgXBP1, 1 nM | 74.442
sgRNA knockout: sgXBP1, 10 nM | 44.5
sgRNA knockout: sgXBP1, 100 nM | 9.43
sgRNA knockout: sgXBP1, 1000 nM | 11.1

CC(C)(C)OC(=O)CN(Cc1ccc(Cl)cc1)Cc1ccc([N+](=O)[O-])s1 [GSK4112]
Conditions | relative cell number
sgRNA knockout: sgATF3, 10 nM | 96.3
sgRNA knockout: sgATF3, 100 nM | 96.7
sgRNA knockout: sgATF3, 1000 nM | 101
sgRNA knockout: sgATF3, 10000 nM | 86.4
sgRNA knockout: sgATF4, 10 nM | 82.2
sgRNA knockout: sgATF4, 100 nM | 94.4
sgRNA knockout: sgATF4, 1000 nM | 89.6
sgRNA knockout: sgATF4, 10000 nM | 102
sgRNA knockout: sgATF6, 10 nM | 88.7
sgRNA knockout: sgATF6, 100 nM | 94.1
sgRNA knockout: sgATF6, 1000 nM | 89.5
sgRNA knockout: sgATF6, 10000 nM | 101
sgRNA knockout: sgATG7, 10 nM | 74.5
sgRNA knockout: sgATG7, 100 nM | 92.1
sgRNA knockout: sgATG7, 1000 nM | 98.4
sgRNA knockout: sgATG7, 10000 nM | 102
sgRNA knockout: sgERN1, 10 nM | 98.3
sgRNA knockout: sgERN1, 100 nM | 109
sgRNA knockout: sgERN1, 1000 nM | 87.5
sgRNA knockout: sgERN1, 10000 nM | 97.9
sgRNA knockout: sgHSF1, 10 nM | 78.8
sgRNA knockout: sgHSF1, 100 nM | 102
sgRNA knockout: sgHSF1, 1000 nM | 116
sgRNA knockout: sgHSF1, 10000 nM | 101
sgRNA knockout: sgHSF2, 10 nM | 80.1
sgRNA knockout: sgHSF2, 100 nM | 96.42
sgRNA knockout: sgHSF2, 1000 nM | 74
sgRNA knockout: sgHSF2, 10000 nM | 104
sgRNA knockout: sgKEAP1, 10 nM | 92.7
sgRNA knockout: sgKEAP1, 100 nM | 89.1
sgRNA knockout: sgKEAP1, 1000 nM | 95
sgRNA knockout: sgKEAP1, 10000 nM | 91.1
sgRNA knockout: sgNFE2L2, 10 nM | 89
sgRNA knockout: sgNFE2L2, 100 nM | 99.4
sgRNA knockout: sgNFE2L2, 1000 nM | 88
sgRNA knockout: sgNFE2L2, 10000 nM | 98.8
sgRNA knockout: sgSLC35F2, 10 nM | 83.2
sgRNA knockout: sgSLC35F2, 100 nM | 116
sgRNA knockout: sgSLC35F2, 1000 nM | 92.5
sgRNA knockout: sgSLC35F2, 10000 nM | 103
sgRNA knockout: sgXBP1, 10 nM | 104
sgRNA knockout: sgXBP1, 100 nM | 94.1
sgRNA knockout: sgXBP1, 1000 nM | 129
sgRNA knockout: sgXBP1, 10000 nM | 115
